PubChem BioAssay AID1259272, Sanger Institute | 2017

- Test: 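Kinome-wide siRNA search for genes whose silencing boosts targeted drug effects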 (primary screen)
- Cells: SW1116 human colorectal cancer cells
- Reagent: siRNA pool against human genes
- Treatment: anchor drugs BYL719 (1 µM), cetuximab (5 µg/ml) or trametinib (10 nM), or DMSO vehicle; exposure length not given
- Detection: 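Cell survival as a fraction of wells given a non-targeting pool, averaged over replicates; robust z-score without drug; synergy score for each of BYL719, cetuximab and trametinib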
- Reading the numbers: viability z-score, no drug: higher = more cells remaining; strongly negative means essential gene; viability, no drug: higher = more viable cells; synergy score with BYL719 and synergy score with cetuximab and synergy score with trametinib: higher = stronger synthetic-lethal synergy with the drug
- Rule for the call: 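Called essential if the drug-free knock-down gives a robust viability z-score below -3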
- Meaning of the calls: active = essential (knock-down alone); inactive = no change
Shown is one part, drawn at random, of 794 deposited reagents. In the full data, 7 (0.88%) got an active call. 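Essential calls reflect knock-down without drug only, not synergy with drugs; drug exposure length not given.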 Entries without a mark were called inactive. Viability is capped at 1. Not stated in the record: the amount of reagent, the time to read-out.

no.	gene knocked down	viability z-score, no drug	viability, no drug (fraction of control)	synergy score with BYL719	synergy score with cetuximab	synergy score with trametinib
1	JAK1	0.19	0.931	0.034	0.076	0.121
2	FGR	-1.22	0.78	0.0682	0.0451	0.026
3	PIK3C2B	0.463	0.96	-0.0893	-0.0565	-0.0265
4	PNCK	-1.5	0.75	-0.259	-0.0237	0.0507
5	ITSN1	0.677	0.982	0.128	0.0465	0.0341
6	TPK1	0.842	1	-0.0743	0.0835	0.15
7	CERK	0.842	1	0.0242	0.0945	0.0035
8	SOX9	0.701	0.985	-0.0405	-0.0367	0.0896
9	FOXP1	-1.01	0.803	-0.154	-0.142	0.0947
10	CAMKK2	-0.872	0.817	-0.199	-0.0606	0.0152
11	ROS1	-0.244	0.884	-0.0443	-0.0676	0.179
12	UCK2	-1.7	0.729	-0.217	-0.22	-0.195
13	PDK4	-0.129	0.897	-0.0466	0.0655	0.0302
14	LCK	-0.00699	0.91	0.0408	0.139	-0.0757
15	ACSL6	0.842	1	-0.0367	-0.0543	0.000847
16	FCSK	-0.567	0.85	-0.115	-0.166	-0.0168
17	NR2F2	-0.893	0.815	-0.0517	-0.0453	0.0808
18	ULK3	0.842	1	-0.0788	0.0495	0.0117
19	DYRK3	0.842	1	-0.0495	0.0483	0.0699
20	AK5	0.842	1	-0.00522	0.0308	-0.0127
21	PHKG2	-0.0167	0.909	-0.0577	0.0332	-0.0568
22	PIK3R3	0.842	1	-0.0788	-0.0757	-0.076
23	SPEG	0.842	1	-0.0645	0.0319	-0.0622
24	DDR2	0.842	1	-0.0788	0.0268	-0.023
25	CDK17	-0.174	0.892	-0.0306	-0.139	-0.183
26	CDK13	0.449	0.958	-0.0468	-0.00251	-0.107
27	TAF1L	-0.191	0.89	-0.0273	-0.0998	0.0248
28	PIK3CA	0.312	0.944	-0.0913	-0.00579	0.0018
29	TLK1	0.467	0.96	0.101	0.226	0.181
30	POMK	0.303	0.943	-0.107	-0.0528	-0.0842
31	DGKI	0.842	1	-0.00932	-0.0369	0.0183
32	CAMK2A	-0.425	0.865	-0.0205	-0.16	-0.0314
33	ETNK1	0.397	0.953	-0.122	0.141	0.0607
34	MAPK1	-0.635	0.843	0.0612	0.0502	0.0494
35	SIK2	0.842	1	0.0677	-0.012	-0.182
36	AXIN2	0.842	1	0.0822	-0.0251	0.101
37	MAP3K4	0.133	0.925	-0.0892	-0.0199	-0.0877
38	DSTYK	0.842	1	-0.0274	0.175	0.114
39	AXL	0.0758	0.918	-0.0794	-0.148	-0.0334
40	WNK1	0.842	1	0.0578	0.0621	0.214
41	STK31	-1.24	0.778	-0.102	-0.0877	0.116
42	PFKFB3	-2.24	0.671	-0.023	-0.122	0.144
43	NIM1K	0.527	0.967	-0.0126	0.0456	-0.00811
44	GSK3B	-0.508	0.856	-0.195	-0.049	-0.0701
45	MAP3K21	0.187	0.93	-0.00683	-0.067	0.00233
46	GALK2	-0.531	0.854	-0.0354	-0.0459	0.15
47	STK35	-0.833	0.822	-0.172	-0.191	-0.0809
48	MAGI2	0.145	0.926	-0.132	-0.0954	0.0585
49	PIK3CG	-0.245	0.884	-0.155	0.0739	0.0912
50	RPS6KB1	-1.69	0.731	-0.173	-0.0579	-0.0239
51	MASTL	-0.654	0.841	-0.0272	0.0871	0.0258
52	PRKCQ	-0.533	0.854	-0.112	0.00429	0.124
53	TGFBR2	-0.252	0.884	-0.0445	0.0122	0.145
54	CALM1	0.842	1	-0.0788	0.062	-0.0478
55	NTRK1	-1.03	0.801	-0.0531	0.0321	0.182
56	PRPS1L1	0.107	0.922	-0.0154	0.0166	0.0988
57	TSSK2	-0.16	0.893	-0.084	-0.0539	-0.00313
58	ITK	0.842	1	-0.0788	0.142	-0.0176
59	DAPK2	0.263	0.938	0.0128	-0.133	-0.000209
60	PXK	0.416	0.955	-0.0197	0.0716	0.053
61	NEK7	0.842	1	-0.0788	0.0374	-0.112
62	STAG2	0.842	1	-0.02	-0.0277	-0.147
63	MYH10	0.33	0.945	0.19	0.191	0.136

6 entries already listed, arranged by “synergy score with BYL719”, lowest first:
gene knocked down	viability z-score, no drug	viability, no drug (fraction of control)	synergy score with BYL719	synergy score with cetuximab	synergy score with trametinib
PRKCQ	-0.533	0.854	-0.112	0.00429	0.124
CALM1	0.842	1	-0.0788	0.062	-0.0478
NTRK1	-1.03	0.801	-0.0531	0.0321	0.182
TGFBR2	-0.252	0.884	-0.0445	0.0122	0.145
MASTL	-0.654	0.841	-0.0272	0.0871	0.0258
PRPS1L1	0.107	0.922	-0.0154	0.0166	0.0988
